Reference: PubChem BioAssay AID493246 (Drosophila RNAi Screening Center, 2011)

Test: 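Genes fly cells need to grow and stay alive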 (primary screen)
Cells: Drosophila Kc and S2R+ cells
Reagent: long dsRNA against Drosophila genes
Measurement: 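Cell number per well after knock-down, printed as raw plate values; calls were based on per-plate z-scores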
Direction: Kc cell number and S2R+ cell number: higher = more cells remaining
Active means: 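Counted as a hit if cell number falls by a z-score of at least 3 within its plate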
The screen tested about 21,000 reagents; below is a random part of those that have a named target and a result. Over the whole deposit, 429 (2%) got an active call. 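Values are raw and not normalised between plates; calls rest on per-plate z-scores that were not deposited.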 The numbers tell different reagents against one gene apart. Not given: the amount of reagent, the time to read-out.

ken (ken and barbie)
- Kc cell number, rep 1: 7.67e5
- Kc cell number, rep 2: 8.64e5
- S2R+ cell number, rep 1: 4.54e5
- S2R+ cell number, rep 2: 5.51e5
- Call: active

Dbct (Dihydrolipoamide branched chain transacylase E2)
- Kc cell number, rep 1: 5.70e5
- S2R+ cell number, rep 1: 9.46e5
- Call: inactive

fipi (factor of interpulse interval)
- Kc cell number, rep 1: 1.57e6
- Kc cell number, rep 2: 1.52e6
- S2R+ cell number, rep 1: 8.00e5
- S2R+ cell number, rep 2: 9.37e5
- Call: inactive

shd (shade)
- Kc cell number, rep 1: 1.28e6
- Kc cell number, rep 2: 1.38e6
- S2R+ cell number, rep 1: 1.21e6
- S2R+ cell number, rep 2: 1.30e6
- Call: inactive

Ssu72 (Ssu72 CTD phosphatase)
- Kc cell number, rep 1: 1.56e6
- Kc cell number, rep 2: 1.65e6
- S2R+ cell number, rep 1: 1.19e6
- S2R+ cell number, rep 2: 1.31e6
- Call: inactive

CG12637
- Kc cell number, rep 1: 1.73e6
- Kc cell number, rep 2: 1.67e6
- S2R+ cell number, rep 1: 1.08e6
- S2R+ cell number, rep 2: 1.31e6
- Call: inactive

CSN4 (COP9 signalosome subunit 4)
- Kc cell number, rep 1: 1.42e6
- Kc cell number, rep 2: 1.51e6
- S2R+ cell number, rep 1: 9.47e5
- S2R+ cell number, rep 2: 1.13e6
- Call: inactive

sty (sprouty)
- Kc cell number, rep 1: 1.58e6
- Kc cell number, rep 2: 1.44e6
- S2R+ cell number, rep 1: 1.08e6
- S2R+ cell number, rep 2: 1.37e6
- Call: inactive

CG10265
- Kc cell number, rep 1: 1.35e6
- Kc cell number, rep 2: 1.43e6
- S2R+ cell number, rep 1: 9.94e5
- S2R+ cell number, rep 2: 1.08e6
- Call: inactive

scw (screw) #1
- Kc cell number, rep 1: 1.56e6
- Kc cell number, rep 2: 1.55e6
- S2R+ cell number, rep 1: 9.72e5
- S2R+ cell number, rep 2: 1.25e6
- Call: inactive

scw (screw) #2
- Kc cell number, rep 1: 1.82e6
- Kc cell number, rep 2: 1.82e6
- S2R+ cell number, rep 1: 1.20e6
- S2R+ cell number, rep 2: 1.34e6
- Call: inactive

Su(var)205 (Suppressor of variegation 205)
- Kc cell number, rep 1: 1.22e6
- Kc cell number, rep 2: 1.32e6
- S2R+ cell number, rep 1: 6.54e5
- S2R+ cell number, rep 2: 9.41e5
- Call: inactive

CG32354 #1
- Kc cell number, rep 1: 1.41e6
- Kc cell number, rep 2: 1.43e6
- S2R+ cell number, rep 1: 1.20e6
- S2R+ cell number, rep 2: 1.14e6
- Call: inactive

CG32354 #2
- Kc cell number, rep 1: 1.46e6
- Kc cell number, rep 2: 1.51e6
- S2R+ cell number, rep 1: 1.04e6
- S2R+ cell number, rep 2: 1.13e6
- Call: inactive

Cyp4ad1 (Cytochrome P450 4ad1)
- Kc cell number, rep 1: 1.36e6
- Kc cell number, rep 2: 1.40e6
- S2R+ cell number, rep 1: 1.17e6
- S2R+ cell number, rep 2: 1.23e6
- Call: inactive

Acbp3 (Acyl-CoA binding protein 3)
- Kc cell number, rep 1: 1.57e6
- Kc cell number, rep 2: 1.39e6
- S2R+ cell number, rep 1: 1.06e6
- S2R+ cell number, rep 2: 1.18e6
- Call: inactive

Ordered by “Kc cell number, rep 1” (descending): some entries from above.
scw (screw) #2
- Kc cell number, rep 1: 1.82e6
- Kc cell number, rep 2: 1.82e6
- S2R+ cell number, rep 1: 1.20e6
- S2R+ cell number, rep 2: 1.34e6
- Call: inactive

sty (sprouty)
- Kc cell number, rep 1: 1.58e6
- Kc cell number, rep 2: 1.44e6
- S2R+ cell number, rep 1: 1.08e6
- S2R+ cell number, rep 2: 1.37e6
- Call: inactive

scw (screw) #1
- Kc cell number, rep 1: 1.56e6
- Kc cell number, rep 2: 1.55e6
- S2R+ cell number, rep 1: 9.72e5
- S2R+ cell number, rep 2: 1.25e6
- Call: inactive

CG10265
- Kc cell number, rep 1: 1.35e6
- Kc cell number, rep 2: 1.43e6
- S2R+ cell number, rep 1: 9.94e5
- S2R+ cell number, rep 2: 1.08e6
- Call: inactive

The list goes on.
Karl
- Kc cell number, rep 1: 5.50e5
- S2R+ cell number, rep 1: 7.70e5
- Call: inactive

indra
- Kc cell number, rep 1: 1.33e6
- Kc cell number, rep 2: 1.40e6
- S2R+ cell number, rep 1: 1.18e6
- S2R+ cell number, rep 2: 1.17e6
- Call: inactive

obst-H (obstructor-H) #1
- Kc cell number, rep 1: 1.68e6
- Kc cell number, rep 2: 1.59e6
- S2R+ cell number, rep 1: 1.25e6
- S2R+ cell number, rep 2: 1.35e6
- Call: inactive

obst-H (obstructor-H) #2
- Kc cell number, rep 1: 1.70e6
- Kc cell number, rep 2: 1.57e6
- S2R+ cell number, rep 1: 1.20e6
- S2R+ cell number, rep 2: 1.42e6
- Call: inactive

kuk (kugelkern)
- Kc cell number, rep 1: 1.54e6
- Kc cell number, rep 2: 1.70e6
- S2R+ cell number, rep 1: 1.20e6
- S2R+ cell number, rep 2: 1.28e6
- Call: inactive

l(2)05287 (lethal (2) 05287) #1
- Kc cell number, rep 1: 1.46e6
- Kc cell number, rep 2: 1.50e6
- S2R+ cell number, rep 1: 9.29e5
- S2R+ cell number, rep 2: 9.91e5
- Call: inactive

l(2)05287 (lethal (2) 05287) #2
- Kc cell number, rep 1: 1.50e6
- Kc cell number, rep 2: 1.61e6
- S2R+ cell number, rep 1: 1.20e6
- S2R+ cell number, rep 2: 4.18e5
- Call: inactive

CG10910
- Kc cell number, rep 1: 1.33e6
- Kc cell number, rep 2: 1.38e6
- S2R+ cell number, rep 1: 1.09e6
- S2R+ cell number, rep 2: 1.22e6
- Call: inactive

CG13907
- Kc cell number, rep 1: 1.32e6
- Kc cell number, rep 2: 1.35e6
- S2R+ cell number, rep 1: 1.13e6
- S2R+ cell number, rep 2: 1.12e6
- Call: inactive

Kdm4B (Lysine demethylase 4B)
- Kc cell number, rep 1: 1.29e6
- Kc cell number, rep 2: 1.37e6
- S2R+ cell number, rep 1: 1.05e6
- S2R+ cell number, rep 2: 1.09e6
- Call: inactive

CG4053
- Kc cell number, rep 1: 1.34e6
- Kc cell number, rep 2: 1.46e6
- S2R+ cell number, rep 1: 1.25e6
- S2R+ cell number, rep 2: 1.42e6
- Call: inactive
